# Experimental data as given in the supplement of paper PMC12819154, “High-throughput peptide-centric local stability assay extends protein–ligand identification to membrane proteins, tissues and bacteria” (Nature Structural & Molecular Biology, 2025).
# By UniProt entry, the sequences of proteins in these tests, tags left out. Where a name states a change or a piece, a line headed by the entry shows the natural chain unless it says otherwise.
# UniProt O89017: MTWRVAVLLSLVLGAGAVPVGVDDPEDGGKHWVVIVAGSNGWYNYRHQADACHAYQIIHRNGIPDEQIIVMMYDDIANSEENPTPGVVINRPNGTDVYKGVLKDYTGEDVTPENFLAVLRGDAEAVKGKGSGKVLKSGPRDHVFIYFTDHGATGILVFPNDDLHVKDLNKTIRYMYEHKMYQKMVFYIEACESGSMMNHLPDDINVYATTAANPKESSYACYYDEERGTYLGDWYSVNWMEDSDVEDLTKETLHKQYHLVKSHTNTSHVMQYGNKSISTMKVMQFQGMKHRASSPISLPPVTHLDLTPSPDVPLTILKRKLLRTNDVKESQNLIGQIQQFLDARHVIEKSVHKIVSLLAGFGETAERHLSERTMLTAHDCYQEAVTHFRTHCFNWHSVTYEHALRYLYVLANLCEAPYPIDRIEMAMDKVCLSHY
# UniProt P07091: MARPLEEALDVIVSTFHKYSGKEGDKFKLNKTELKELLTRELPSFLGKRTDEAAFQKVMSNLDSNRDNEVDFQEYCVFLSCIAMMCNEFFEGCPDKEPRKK
# UniProt P05367: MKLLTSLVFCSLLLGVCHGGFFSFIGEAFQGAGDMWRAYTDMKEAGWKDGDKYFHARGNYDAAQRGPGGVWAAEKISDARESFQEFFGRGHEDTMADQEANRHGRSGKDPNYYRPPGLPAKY
# UniProt P13609: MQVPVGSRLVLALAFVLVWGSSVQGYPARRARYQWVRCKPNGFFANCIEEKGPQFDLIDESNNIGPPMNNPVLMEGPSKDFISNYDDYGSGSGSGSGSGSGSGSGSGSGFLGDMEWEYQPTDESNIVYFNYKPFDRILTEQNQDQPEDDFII
# UniProt P15535: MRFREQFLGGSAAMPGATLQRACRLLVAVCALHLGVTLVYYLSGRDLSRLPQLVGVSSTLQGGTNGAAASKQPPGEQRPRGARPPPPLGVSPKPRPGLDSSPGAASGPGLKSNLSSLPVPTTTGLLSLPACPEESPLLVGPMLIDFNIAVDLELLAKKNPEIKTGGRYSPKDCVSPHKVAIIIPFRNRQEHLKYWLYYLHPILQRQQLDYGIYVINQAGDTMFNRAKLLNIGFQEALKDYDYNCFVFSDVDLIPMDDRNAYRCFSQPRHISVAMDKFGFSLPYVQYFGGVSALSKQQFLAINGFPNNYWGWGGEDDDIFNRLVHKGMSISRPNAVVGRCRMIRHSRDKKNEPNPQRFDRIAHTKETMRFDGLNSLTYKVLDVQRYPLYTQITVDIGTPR
# UniProt O89086: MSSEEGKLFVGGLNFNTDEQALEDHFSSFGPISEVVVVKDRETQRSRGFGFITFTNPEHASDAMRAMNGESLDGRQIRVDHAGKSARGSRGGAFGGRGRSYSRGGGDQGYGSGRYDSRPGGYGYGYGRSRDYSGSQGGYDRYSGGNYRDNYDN
# UniProt P12791: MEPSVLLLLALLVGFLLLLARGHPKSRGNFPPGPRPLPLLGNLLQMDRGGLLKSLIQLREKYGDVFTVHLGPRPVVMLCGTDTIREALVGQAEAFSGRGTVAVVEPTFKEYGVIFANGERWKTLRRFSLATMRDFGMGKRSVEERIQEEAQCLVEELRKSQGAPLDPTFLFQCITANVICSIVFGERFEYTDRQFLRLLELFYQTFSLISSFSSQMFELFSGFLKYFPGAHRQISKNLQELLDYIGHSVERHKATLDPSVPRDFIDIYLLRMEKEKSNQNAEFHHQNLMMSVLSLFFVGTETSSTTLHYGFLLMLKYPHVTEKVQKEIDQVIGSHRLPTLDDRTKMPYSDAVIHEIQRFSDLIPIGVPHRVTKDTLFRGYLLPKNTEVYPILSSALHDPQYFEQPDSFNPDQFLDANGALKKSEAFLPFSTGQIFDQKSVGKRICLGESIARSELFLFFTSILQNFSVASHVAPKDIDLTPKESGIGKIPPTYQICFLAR
# UniProt P13707: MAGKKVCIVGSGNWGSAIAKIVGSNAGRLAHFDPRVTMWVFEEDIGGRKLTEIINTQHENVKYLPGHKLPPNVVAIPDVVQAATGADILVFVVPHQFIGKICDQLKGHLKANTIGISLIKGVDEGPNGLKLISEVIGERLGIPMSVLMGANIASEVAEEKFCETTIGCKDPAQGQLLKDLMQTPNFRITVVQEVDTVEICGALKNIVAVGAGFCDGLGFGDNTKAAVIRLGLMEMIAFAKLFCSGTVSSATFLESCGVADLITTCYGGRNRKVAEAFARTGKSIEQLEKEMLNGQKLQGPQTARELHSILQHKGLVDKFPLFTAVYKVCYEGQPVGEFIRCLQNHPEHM
# UniProt P11103, whole entry: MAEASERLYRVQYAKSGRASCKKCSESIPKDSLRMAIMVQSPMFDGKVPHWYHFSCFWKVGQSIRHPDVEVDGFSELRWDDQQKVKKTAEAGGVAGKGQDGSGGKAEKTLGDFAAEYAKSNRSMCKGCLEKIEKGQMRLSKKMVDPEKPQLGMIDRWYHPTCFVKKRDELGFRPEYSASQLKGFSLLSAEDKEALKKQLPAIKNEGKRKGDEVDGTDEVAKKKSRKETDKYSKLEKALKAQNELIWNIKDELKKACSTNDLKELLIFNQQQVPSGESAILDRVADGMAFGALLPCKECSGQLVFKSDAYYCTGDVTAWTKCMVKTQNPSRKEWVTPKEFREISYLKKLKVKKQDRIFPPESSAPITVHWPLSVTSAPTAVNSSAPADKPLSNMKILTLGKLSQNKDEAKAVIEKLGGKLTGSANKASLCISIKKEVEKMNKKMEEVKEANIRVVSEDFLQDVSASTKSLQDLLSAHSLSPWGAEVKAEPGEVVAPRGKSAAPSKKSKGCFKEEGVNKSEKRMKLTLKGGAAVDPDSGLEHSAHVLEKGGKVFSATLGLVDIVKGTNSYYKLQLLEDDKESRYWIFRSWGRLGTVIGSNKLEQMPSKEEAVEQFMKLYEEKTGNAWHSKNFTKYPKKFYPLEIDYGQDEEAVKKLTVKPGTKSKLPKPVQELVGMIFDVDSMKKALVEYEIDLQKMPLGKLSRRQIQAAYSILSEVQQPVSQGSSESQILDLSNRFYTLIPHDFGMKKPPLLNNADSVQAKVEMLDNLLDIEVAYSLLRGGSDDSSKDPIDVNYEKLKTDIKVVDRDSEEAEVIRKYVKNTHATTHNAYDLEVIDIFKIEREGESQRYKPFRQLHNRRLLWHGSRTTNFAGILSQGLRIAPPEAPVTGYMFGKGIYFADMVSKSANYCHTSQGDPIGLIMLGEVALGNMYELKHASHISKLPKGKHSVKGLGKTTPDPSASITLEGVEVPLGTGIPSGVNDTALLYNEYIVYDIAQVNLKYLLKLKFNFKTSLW
# UniProt O88958: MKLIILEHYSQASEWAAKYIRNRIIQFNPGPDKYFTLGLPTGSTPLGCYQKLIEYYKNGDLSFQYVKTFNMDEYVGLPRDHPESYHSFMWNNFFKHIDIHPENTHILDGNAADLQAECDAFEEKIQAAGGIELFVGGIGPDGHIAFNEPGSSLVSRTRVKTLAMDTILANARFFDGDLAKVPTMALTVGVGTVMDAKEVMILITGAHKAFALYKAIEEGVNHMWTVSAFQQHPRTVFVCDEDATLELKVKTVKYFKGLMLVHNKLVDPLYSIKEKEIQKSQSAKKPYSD
# UniProt P12790: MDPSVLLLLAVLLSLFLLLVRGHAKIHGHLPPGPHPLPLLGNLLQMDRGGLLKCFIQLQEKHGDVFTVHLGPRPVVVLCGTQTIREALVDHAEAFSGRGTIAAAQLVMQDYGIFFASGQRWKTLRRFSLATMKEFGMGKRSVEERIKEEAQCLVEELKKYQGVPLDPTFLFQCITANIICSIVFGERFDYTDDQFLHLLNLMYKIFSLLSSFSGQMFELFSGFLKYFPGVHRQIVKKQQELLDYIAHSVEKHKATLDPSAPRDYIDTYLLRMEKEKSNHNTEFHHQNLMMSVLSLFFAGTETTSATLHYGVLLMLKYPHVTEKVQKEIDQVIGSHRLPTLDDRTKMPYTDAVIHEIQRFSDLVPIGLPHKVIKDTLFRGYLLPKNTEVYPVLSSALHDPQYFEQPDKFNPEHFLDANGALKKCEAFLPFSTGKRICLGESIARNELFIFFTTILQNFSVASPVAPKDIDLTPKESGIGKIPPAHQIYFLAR
# UniProt P10287: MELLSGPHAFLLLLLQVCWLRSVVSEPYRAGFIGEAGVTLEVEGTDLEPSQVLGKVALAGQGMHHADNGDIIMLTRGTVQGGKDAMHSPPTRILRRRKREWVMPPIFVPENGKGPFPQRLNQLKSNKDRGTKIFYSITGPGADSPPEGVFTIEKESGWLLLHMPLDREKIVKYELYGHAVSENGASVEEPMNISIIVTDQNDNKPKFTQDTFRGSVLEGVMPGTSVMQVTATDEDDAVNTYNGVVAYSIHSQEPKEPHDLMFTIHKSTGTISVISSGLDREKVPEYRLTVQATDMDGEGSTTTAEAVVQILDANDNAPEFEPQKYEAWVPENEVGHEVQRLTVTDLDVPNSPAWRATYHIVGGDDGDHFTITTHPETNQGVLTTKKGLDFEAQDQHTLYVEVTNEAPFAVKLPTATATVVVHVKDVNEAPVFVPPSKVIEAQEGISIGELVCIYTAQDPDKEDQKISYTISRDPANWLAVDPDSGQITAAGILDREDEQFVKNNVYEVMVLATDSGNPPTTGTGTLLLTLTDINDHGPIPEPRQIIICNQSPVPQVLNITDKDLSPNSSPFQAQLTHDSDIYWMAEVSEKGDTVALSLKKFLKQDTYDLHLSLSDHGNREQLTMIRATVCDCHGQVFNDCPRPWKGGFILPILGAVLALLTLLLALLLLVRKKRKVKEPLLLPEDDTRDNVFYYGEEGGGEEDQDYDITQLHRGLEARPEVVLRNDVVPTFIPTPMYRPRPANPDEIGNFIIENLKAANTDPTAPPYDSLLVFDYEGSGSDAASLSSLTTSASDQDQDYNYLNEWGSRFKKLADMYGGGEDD
# The list shows a part of the results. Most entries show no effect beyond the scatter of the controls.
# Compound: CN[C@@H]1C[C@H]2O[C@@](C)([C@@H]1OC)n1c3ccccc3c3c4c(c5c6ccccc6n2c5c31)C(=O)NC4 [staurosporine]
# Assay: log2 fold change of tryptic peptide abundance, ligand vs vehicle (limited proteolysis) (log2 ratio); higher = more trypsin-susceptible (destabilized)
# Conditions: ligand concentration: 20 uM; sample: mouse liver crude lysate; replicate design: treated separately
row,Target,log2 fold change
1,"UniProt O89017 (peptide sequence: HQADACHAYQIIHR, peptide start residue: 47)",0.0647
2,"UniProt P07091 (peptide sequence: ELPSFLGKR, peptide start residue: 41)",0.139
3,"UniProt P05367 (peptide sequence: ESFQEFFGR, peptide start residue: 81)",0.0656
4,"UniProt P13609 (peptide sequence: CKPNGFFANCIEEK, peptide start residue: 38)",-0.232
5,"UniProt P15535 (peptide sequence: KNEPNPQR, peptide start residue: 349)",-0.468
6,"UniProt O89086 (peptide sequence: PGGYGYGYGR, peptide start residue: 119)",0.348
7,"UniProt P12791 (peptide sequence: ATLDPSVPR, peptide start residue: 254)",-0.099
8,"UniProt P13707 (peptide sequence: GVDEGPNGLK, peptide start residue: 121)",-0.313
9,"UniProt P11103 (peptide sequence: RKGDEVDGTDEVAK, peptide start residue: 208)",0.172
10,"UniProt O88958 (peptide sequence: EVMILITGAHK, peptide start residue: 198)",0.547
11,"UniProt P12790 (peptide sequence: ICLGESIAR, peptide start residue: 444)",0.0692
12,"UniProt P10287 (peptide sequence: EKVPEYR, peptide start residue: 281)",-0.0916
